Laboratory results published in the supplement of paper PMC5949888.
± gives the standard deviation of the averaged measurements. Most values lie at the floor of the assay. Slopes are relative: functional sequences can read slightly below zero.

Test system: Saccharomyces cerevisiae PS128 hsf1 delta, HSF1(1-493) fusion
Assay: growth estimate (transactivation domain function in HSF1 fusion, heat-shock survival) (a.u. (slope of normalised read count over time)); higher = stronger growth at 37°C, i.e. more transactivation activity
Conditions: library: random library
Experimental: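 Random 60-nt DNA library encoding peptides of up to 20 aa, fused to the C-terminus of yeast HSF1 residues 1-493 (C-terminal TAD deleted) and expressed from the native HSF1 promoter on a CEN plasmid in hsf1-deleted S. cerevisiae PS128. Cells were selected at 37°C on -trp 5-FOA plates for 0, 2, 4, 6 and 8 days and amplicons were sequenced. Growth estimate is the slope of a robust linear fit of total-sum-normalised read counts (normalised to the first time point) over time, using at least 2 replicates. Sequences are classed functional (TAD activity) above a threshold of -0.13, set from stop-codon control sequences.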

| Substance | growth estimate |
| --- | --- |
| RAHQTVCFRHRPGF | < -0.25 |
| RHKF | < -0.25 |
| LRLTGAPVDSIIVRELGEQN | < -0.25 |
| LPLPACDR | < -0.25 |
| IENVRC | < -0.25 |
| VRVKSLRREVSWSP | < -0.25 |
| AWTRCKE | -0.0464 |
| SVRSRVRGEREVVTVRIDWR | < -0.25 |
| GPSQAERGRT | < -0.25 |
| ADRSPRASPLCPQQVDPKMA | < -0.25 |
| RTGQSDRGVFSFLSPCVGST | < -0.25 |
| IYLDGFGYAGRLVVVMPILN | < -0.25 |
| KKIGIVDREGAPHAVP | < -0.25 |
| RQYGGIGGDHKLQLTITDRR | < -0.25 |
| VIIRSTSRGRRCSDGPCVTA | < -0.25 |
| PTSGSPHCIHA | < -0.25 |
| TVVVEHAQSLGGIRPV | < -0.25 |
| HRD | < -0.25 |
| IKQLDQRARENFHNARITLG | < -0.25 |
| RTGFFGAWHLPCQLPRTLGC | < -0.25 |
| RPEFRWEGLATLAELLLASV | < -0.25 |
| KIPLSYFMYLFGTQISDRPI | < -0.25 |
| LSESIRFRFVHVPPSRPVPP | < -0.25 |
| DEHVISFPSRLKKNT | < -0.25 |
| IIMGERGKTGSTMGGF | < -0.25 |
| GVPTYC | < -0.25 |

| Substance | growth estimate |
| --- | --- |
| HLAILAVRRLRLSRDLFTTT | < -0.25 |
| LGPTSPT | < -0.25 |
| MER | -0.243 |
| YEVWTQGLKTPRCTRLVSGS | < -0.25 |
| HRRHAYTTKVGRVIKVLVVS | < -0.25 |
| AFLNPTRVLSVPN | < -0.25 |
| RDYSQLPWEGPSHTLA | -0.242 |
| PYPRCT | < -0.25 |
| NIEIGGGFLQGGGFVNARRN | < -0.25 |
| LFAVAHGPKRTKL | < -0.25 |
| VGEVKGVCASHKRVVDNFAL | < -0.25 |
| RSTGVELYSLISTCL | < -0.25 |
| PLPGPFTRL | < -0.25 |
| NTSPRYEISHQGAGGIDGIT | < -0.25 |
| IKKGQILRNLERADPGGPTR | < -0.25 |
| TLGVVVLHARG | < -0.25 |
| LAALL | < -0.25 |
| IKPMLAWFGSNTIGVLPSWF | < -0.25 |
| GSYRVIGRDTSDADILYLDA | -0.225 |
| LNGSNAREPDALKGCRSPVC | < -0.25 |
| IIRYSSQKHRYGSGRVVSPE | < -0.25 |
| RRLSSARVYPSAGRPP | < -0.25 |
| HYWELTRDRSADWGLLPILL | < -0.25 |
| GPNDQISRTRGASGIMFLPV | < -0.25 |
| KSGERRNTMSPLDNRQEQTQ | < -0.25 |
| RQRTDV | < -0.25 |

Copied from the list:
HYWELTRDRSADWGLLPILL – growth estimate: < -0.25
IKPMLAWFGSNTIGVLPSWF – growth estimate: < -0.25
AFLNPTRVLSVPN – growth estimate: < -0.25
IKKGQILRNLERADPGGPTR – growth estimate: < -0.25
YEVWTQGLKTPRCTRLVSGS – growth estimate: < -0.25

More results follow:

| Substance | growth estimate |
| --- | --- |
| DITAGELRIECASPRPAFSS | < -0.25 |
| RISAILNRTVG | < -0.25 |
| PRGEYVWPRAEDETGREGVR | < -0.25 |
| VAQM | < -0.25 |
| LRNK | < -0.25 |
| ARQRSPLRVGKGEGLSRGSI | -0.245 |
| RRPGDYQYDEMN | 1.5 |
| ALVEARAGIVKACAACYSGL | < -0.25 |
| TMLGTVRLETRETVRALNTG | < -0.25 |
| YDKVNS | -0.246 |
| VWTPKVLTHSLRGTGSPLAE | < -0.25 |
| PSRGTASLTLVRSEPT | < -0.25 |
| IWLAR | < -0.25 |
| RDISLERAA | < -0.25 |
| RTYWPVKATG | < -0.25 |
| RGEFAGKWGYPVTGQGPQIG | < -0.25 |
| TESAIRL | < -0.25 |
| RLRAMFRFSLPGSREP | < -0.25 |
| CPSSQLR | < -0.25 |
| KTDFSPK | < -0.25 |
| LCDYKNQSAEMLLCREW | < -0.25 |
| LLWVSTRVHTRKVNMTLKQH | < -0.25 |
| FTDPEKSHSRKFQRSESRVH | < -0.25 |
| RCRLCIE | < -0.25 |
| AGNGPIC | < -0.25 |
| CSRTRADPARLRMWKS | < -0.25 |

| Substance | growth estimate |
| --- | --- |
| RTPSKRHRFGSCQTGQRLID | < -0.25 |
| AADFGLRTG | < -0.25 |
| TAEPKYLNAPVGDIAEELSL | < -0.25 |
| LEMGCPWV | < -0.25 |
| ANIFGGPLTLISYKTNLRLN | -0.246 |
| LQWGKPRHNVFTMCSGTIKR | < -0.25 |
| SLVYFWSECNQVLHHIP | < -0.25 |
| VGSIGLLLSSQMLVG | < -0.25 |
| SRHRDQYMVLTGGQDAQAIG | -0.227 |
| STNVLDRRKDARAIFTDWGP | < -0.25 |
| CGLGCGCFVFGSDEAAG | -0.243 |
| WPTWYTAVVSVTERRRDLHR | < -0.25 |
| RTTVFVKAM | < -0.25 |
| NLVVMISADERVMWARHLRI | < -0.25 |
| PEEDF | < -0.25 |
| VHSGASSGKTIHKVIDIAWN | < -0.25 |
| KRA | -0.247 ± 0.0047 |
| IVVYTFN | -0.246 |
| ITVGL | < -0.25 |
| RRSCSSDSPTHLPV | < -0.25 |
| QGM | < -0.25 |
| WKVI | < -0.25 |
| MPTGESMGQHRG | -0.246 |
| QPS | < -0.25 |
| TSEMEINGVNRRIASWCHGT | < -0.25 |
| LFAQGCKCYGMCPGIVRGHP | < -0.25 |

Reformatted as comma-separated lines: entries from further up.
Substance,growth estimate
AADFGLRTG,< -0.25
LEMGCPWV,< -0.25
LQWGKPRHNVFTMCSGTIKR,< -0.25
VHSGASSGKTIHKVIDIAWN,< -0.25
LFAQGCKCYGMCPGIVRGHP,< -0.25

Next entries follow:

| Substance | growth estimate |
| --- | --- |
| VYHCMKCRRHRSPR | < -0.25 |
| PLEVTAETGPIHGVESCNLW | < -0.25 |
| APDVMCRCAGVRPLVLR | < -0.25 |
| CTICIAIARARRPLYTETFF | < -0.25 |
| LTSALVGRGETGLFFHLKRV | < -0.25 |
| PHLPFRVNHTTCLLRVAFSG | < -0.25 |
| ISTRWRSWIVDRSVRSEFLC | < -0.25 |
| SHGSISSGR | < -0.25 |
| SCCLCWAIPLGGRLLGSIAP | < -0.25 |
| SVLKCTLCTVLNLTKNSFDI | < -0.25 |
| TIKRVRVPGLHKSSVVLSTL | < -0.25 |
| LALGPYGSCDVNYRFCECST | < -0.25 |
| YCLAALSSGLNIEMISVGRK | < -0.25 |
| WENHIIGLRTLSKVRLDRAS | < -0.25 |
| PVVASEGARGSLRSQWGMTL | < -0.25 |
| HRY | < -0.25 |
| VQETGSTSLGHAAGLLVTRN | < -0.25 |
| VRIWADQTSRSGFMGHR | < -0.25 |
| QRPCTFTISASRVSIPGEGW | < -0.25 |
| CTLR | < -0.25 |
| KTNEMESFYTGNGLT | -0.243 |
| RHT | < -0.25 |
| PLLG | < -0.25 |
| LSPKEPQCV | < -0.25 |
| ATLKEFSFALFAGRI | < -0.25 |
| AWLVR | < -0.25 |

| Substance | growth estimate |
| --- | --- |
| RVLDTIIGDTTRDKTVH | < -0.25 |
| VTRPTTTLLTEIVLDPARWN | < -0.25 |
| LFPLKVSITVNRMERIVCPG | < -0.25 |
| GARLKEGPTLAQEDRLHVPG | < -0.25 |
| RKLILSQRGRKKDSLSPSPN | < -0.25 |
| KSGSGKAGH | < -0.25 |
| IQSLGGSVRQPGSY | < -0.25 |
| IGNV | < -0.25 |
| MPDPHVISISAARIFRPDSY | < -0.25 |
| DIR | < -0.25 |
| VVCERLPESTEYCAFSYTMG | -0.18 |
| GKAGGW | < -0.25 |
| RWERPVRFSFPGQDTVINC | < -0.25 |
| ILTSCPMALGKCSRGNNGGA | < -0.25 |
| MFPCVKPASGLLPVTTQKPL | < -0.25 |
| RAGA | < -0.25 |
| SATCMKSAKRAHVCL | < -0.25 |
| PIVSRAQNVVDC | < -0.25 |
| VILKSDSCRTGLSTNFSGYG | < -0.25 |
| IYIFGPAQIRRPGGGSRSTV | < -0.25 |
| FHWLDRVRSDATPNVYQSDA | < -0.25 |
